Experimental data from publication doi:10.1101/2023.06.02.543457.
Results are given in words; binding and its absence hold for the method and conditions named. In cells and extracts the contact can be indirect. Here binding means that the protein was enriched with, or labelled near, the bait; the list need not be complete.

Legend:
Rsph1 (mouse) = biological target: T1, Rsph1 (mouse) (UniProt Q8VIG3); test: affinity purification with mass spectrometry
T1 sequence: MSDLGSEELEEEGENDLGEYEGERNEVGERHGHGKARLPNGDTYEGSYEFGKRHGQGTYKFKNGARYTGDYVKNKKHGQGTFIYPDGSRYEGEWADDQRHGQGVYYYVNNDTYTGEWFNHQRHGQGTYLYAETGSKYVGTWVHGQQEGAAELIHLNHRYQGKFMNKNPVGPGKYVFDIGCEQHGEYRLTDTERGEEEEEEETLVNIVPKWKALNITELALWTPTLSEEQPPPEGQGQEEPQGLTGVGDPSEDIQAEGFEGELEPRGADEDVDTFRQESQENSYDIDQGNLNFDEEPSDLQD

Rsph16 (mouse) = biological target: T2, Rsph16 (mouse) (UniProt Q80Y75); test: affinity purification with mass spectrometry
T2 sequence: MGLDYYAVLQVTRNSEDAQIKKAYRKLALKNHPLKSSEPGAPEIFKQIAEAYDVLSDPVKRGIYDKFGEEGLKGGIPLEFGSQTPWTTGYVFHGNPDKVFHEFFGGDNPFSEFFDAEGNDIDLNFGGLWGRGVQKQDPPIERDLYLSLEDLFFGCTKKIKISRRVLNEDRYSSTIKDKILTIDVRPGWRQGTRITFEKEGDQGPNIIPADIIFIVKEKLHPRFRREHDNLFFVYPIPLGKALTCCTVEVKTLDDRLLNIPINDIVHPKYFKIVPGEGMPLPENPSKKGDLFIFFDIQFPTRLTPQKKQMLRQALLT

B1: Rsph10b (protein, UniProt E9PYQ0 1-876)
chain: MVKEKKKADKKGDKSARSPSSISDNPEASKQDSNASKQEVAPSAVVPVVETPLKQAPKRDSVQMEQSEEETQYEEPILTKLIVESYEGEKVRGLYEGEGFAVFQGGNTYHGMFSEGLMHGQGTYIWADGLKYEGDFVKNIPMNHGVYTWPDGSTYEGEVTNGMRNGFGMFKCGTQPVSYIGHWCHGKRHGKGSIYYNQEGTSWYEGDWVYNIKKGWGIRCYKSGNIYEGQWENNMRHGEGRMRWLTTNEEYTGHWEKGIQNGFGTHTWFLKRIPNSQYPLRNEYIGEFVNGFRHGQGKFYYASGAMYEGEWASNKKQGRGRMTFKNGHVYEGLFSNDHIAQFFETEMDYSQSLDRWSDASQRSRQPRGSSVSAVREPETLRKLDGSESRSVLGTSIELDLTLLLDMYPEESQEEEKKQVEYAVLRNITELRRIYCFYSGLGCDHSLDNTFLMTKLHFWRFLKDCRFHHHNITLADMDRVLSVYNGIPIEEIHSPFRTILLRTFLNYLLQLAYYIHHKEFQNRSPSLFLCFTKLMSENIHPHACQVKGHLFSEQQRTLYSMNYIDKCWEIYTAYCRPNEAPPYELTMKMRYFLWMLKDFRMINKDLTATKFMTVIAEDNPFVYDGTDSNFELELVFLEFFEALLCFSLCCMFDQMTRSYLKVPYDDITTNRYGSTQTILNQSIHRSPSAITSHDSEVHFSSTKSSLDKIGALPDGKIRQSEPKLKKSLSEDKVSKMNFKTQGRGLVFMSPQGEKYEKPKDEQKEKLNIWVNNLYVFFVSVLFSAYKREEMLKEKVKENQLQEAELAQQRQIENEELEARLNILREEEARKQDFELDITVLKEPSEIPASQPLTPSPPKEDLASIQTSKASPGKKKKK
Rsph1 (mouse)
  binding: binds
Rsph16 (mouse)
  binding: binds
